Source: PubChem BioAssay AID2551 (National Center for Advancing Translational Sciences (NCATS), 2010)
Hit rate of the full screen: of about 310,000 compounds, about 17,000 (5.5%) were called active. The shares of active, inactive and inconclusive entries below differ from those in the screen. Calls come from the whole dose curve; as a rule, active = well fitted inhibition curve with a large enough effect; inconclusive = small, poorly fitted or top-dose-only effect, or effect the other way; inactive = no such curve, though single readings can be large or run the other way. A potency beside an inconclusive call is a rough fit, not a confirmed value.

The chains behind the UniProt entries cited, without tags or fusion partners. Where a name states a change or a piece, a line headed by the entry shows the natural chain unless it says otherwise.
UniProt P51450: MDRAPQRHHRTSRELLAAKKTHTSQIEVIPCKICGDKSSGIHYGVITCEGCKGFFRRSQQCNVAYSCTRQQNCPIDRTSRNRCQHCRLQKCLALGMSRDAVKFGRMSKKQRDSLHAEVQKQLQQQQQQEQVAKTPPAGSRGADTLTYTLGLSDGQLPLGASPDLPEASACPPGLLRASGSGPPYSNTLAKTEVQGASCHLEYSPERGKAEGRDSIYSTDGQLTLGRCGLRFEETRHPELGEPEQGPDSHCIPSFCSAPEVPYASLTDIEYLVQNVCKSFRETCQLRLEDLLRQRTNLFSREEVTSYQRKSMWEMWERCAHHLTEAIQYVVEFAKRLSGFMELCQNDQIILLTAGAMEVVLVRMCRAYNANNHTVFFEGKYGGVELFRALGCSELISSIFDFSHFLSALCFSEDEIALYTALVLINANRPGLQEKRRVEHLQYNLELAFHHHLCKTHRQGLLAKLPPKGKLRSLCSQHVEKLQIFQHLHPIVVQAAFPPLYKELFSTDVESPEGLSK

The compounds below were run against Nuclear receptor ROR-gamma (Mus musculus) (UniProt P51450) (assay: qHTS for inhibitors of ROR gamma transcriptional activity). Conditions: Drosophila S2 Gal4-RORgamma UAS-luciferase reporter, 20 h; activity change, negative = inhibition: at 53.6 µM (top of the series).
In short: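 Luminescence from a UAS-regulated Photinus luciferase reporter in stably transfected Drosophila Schneider cells is measured; decreased signal marks ROR gamma inhibition. Fusion expression is induced by 700 uM copper sulfate for 20 hr.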
% is set by controls: 0 for no effect and ±100 for the full control effect; potency is the fitted concentration of half-maximal effect.
Note: nearly all actives have a fitted effect of over 60% in size.

Potency, active:
COCCNC(=S)N/N=C(\C)c1ccc(OC(F)F)cc1 2.24 µM
Cc1c(Cl)cccc1NC(=S)NCc1cccs1 4.47 µM
Cc1ccc(-c2c3c(=O)n(C)c(=O)n(C)c3cn2-n2cnnc2)cc1 15.8 µM
CCCc1nc2ccccc2c(=O)n1/N=C/c1ccccc1O 2.51 µM
Cc1ccccc1OCC(=O)N/N=C/c1ccc([N+](=O)[O-])o1 2.51 µM
CCN(c1ccccc1)S(=O)(=O)c1ccc(C(=O)Nc2nnc(CSC)o2)cc1 0.355 µM
CSc1nc(C)cc(OCC(=O)N/N=C/c2ccccc2O)n1 0.891 µM
COc1ccccc1C(=O)O/N=C(\N)c1ccccn1 3.16 µM
Brc1ccc(-c2csc(NNC3=NCCCCC3)n2)cc1 7.08 µM
S=c1[nH]nc(-c2ccc3ccccc3n2)n1-c1ccc(Cl)cc1 1.12 µM
CCSc1nnc(-c2cc3c(s2)-c2ccccc2CC3)o1 1 µM

Potency, inconclusive:
CC(=O)c1ccc(NC(=S)N2c3ccccc3CC2C)cc1 (configuration not stated) 35.5 µM [inhibitor, single point]
CCOC(=O)CN1N=C(/C=C/c2ccc(C)cc2)CCC1=O 3.98 µM [activator, partial curve, poor fit]
Cc1ccc2cc(/C=C/C(=O)c3ccco3)c(Cl)nc2c1 14.1 µM [inhibitor, single point]
O=c1c2ccccc2c(=O)n(Cc2ccccc2)n1Cc1ccccc1 35.5 µM [activator, single point]
Cc1cc(C(=O)CSc2nnc(Nc3ccccc3F)s2)c(C)n1CC1CCCO1 (configuration not stated) 22.4 µM [activator, single point]
Cc1ccc(C2=NN(CC(=O)NCc3ccco3)C(=O)CC2)cc1 31.6 µM [activator, single point]
CCn1c(SCc2ccccc2)nnc1C1CCCCC1 20 µM [inhibitor, single point]
CCCC[n+]1ccn(C2=C([O-])c3ccccc3C(=O)/C2=N\S(=O)(=O)c2ccccc2)c1 10 µM [inhibitor, partial curve]
O=c1cc(CNc2ccc(Br)cc2)nc2sccn12 10 µM [activator, partial curve]
Cc1onc(-c2c(F)cccc2Cl)c1C(=O)OCC(=O)c1c[nH]c2ccccc12 3.55 µM [activator, single point]
O=C(CCc1ccccc1)NC(NC(=S)Nc1ccc(Br)cc1)C(Cl)(Cl)Cl (configuration not stated) 17.8 µM [inhibitor, single point]
COc1cccc(-c2nn(-c3ccccc3)cc2C(=O)OCC(=O)Nc2ncc(Cl)cc2Cl)c1 3.98 µM [activator, partial curve]
CN=c1scc(-c2cc(OC)ccc2OC)n1/N=C/c1c(C)[nH]c2ccccc12 15.8 µM [activator, partial curve]
CC(=O)c1c(C)[nH]c(C(=O)CSc2nnc(-c3ccco3)n2Cc2ccccc2)c1C 35.5 µM [activator, single point]
COc1cccc(CCC(=O)O)c1OC 0.0794 µM [inhibitor, full curve, poor fit]
COc1ccc2cc1Oc1ccc(cc1)C[C@H]1c3c(cc4c(c3Oc3cc5c(cc3OC)CCN(C)[C@@H]5C2)OCO4)CCN1C 11.2 µM [inhibitor, partial curve, poor fit]
O=C(NCCSc1ccc(Br)cc1)c1ccc2nc[nH]c2c1 10 µM [activator, partial curve]
CC(C)CNS(=O)(=O)c1ccc(CCC(=O)N2CCN(c3ccc(F)cc3)CC2)cc1 20 µM [activator, single point]
Cc1ccc(CCNC(=O)C(C)n2nc(C)c3c(C)n(-c4ccccc4)nc3c2=O)cc1 (configuration not stated) 20 µM [activator, single point]
COc1ccc(-c2csc(NC(=O)CN3C(=O)CCC3=O)n2)c(OC)c1 35.5 µM [activator, single point]
CCCC(=O)c1cc2c(cc1NC(=O)c1ccccc1F)OCCO2 17.8 µM [activator, single point]
Cn1c(=O)[nH]c(=O)c2c1nc(Br)n2C/C=N/Nc1ccccc1 25.1 µM [activator, single point]
CCc1ccc(CCC(=O)Nc2ccc(C(C)=O)cc2)o1 1.78 µM [activator, partial curve]
Cc1ccc2oc(C(=O)N(Cc3nccn3C)C(C)C)c(C)c2c1 6.31 µM [inhibitor, single point]
O=C(O)CN(Cc1ccco1)S(=O)(=O)c1ccc(F)cc1 0.112 µM [inhibitor, single point]
Cc1cc(=O)[nH]c(N/N=C/CCc2ccccc2)n1 35.5 µM [inhibitor, single point]
Cc1ccc(N2C(=O)CC(Nc3cccc4ccccc34)C2=O)cc1 (configuration not stated) 15.8 µM [inhibitor, single point]
O=C1Nc2cc(C(=O)NCCN3CCCCCC3)ccc2S/C1=C\c1ccccc1 25.1 µM [inhibitor, single point]
CCC(C)[C@H](NC(=O)NCc1ccco1)C(=O)O (some centres not stated) 0.447 µM [inhibitor, full curve]
Cc1cccc2c1-c1sc(C(=O)Nc3ccccc3N3CCN(C)CC3)cc1CO2 22.4 µM [inhibitor, single point]
O=c1oc2ccccc2cc1-c1csc(Nc2nc3ccc(F)cc3s2)n1 20 µM [inhibitor, single point]
CCOc1ccc(S(=O)(=O)N/N=C(\C)c2ccc(Cl)c(Cl)c2Cl)cc1 12.6 µM [activator, partial curve]
O=C(N/N=C/c1ccc(N2CCCC2)c([N+](=O)[O-])c1)c1cccnc1 35.5 µM [inhibitor, single point]
CCOC(=O)c1c(N)sc2c(OCC)c(Br)ccc12 7.94 µM [activator, partial curve]
COC(=O)/C(=C/c1c[nH]c2ccccc12)[N+](=O)[O-] 12.6 µM [inhibitor, single point]
O=C(NCc1cccnc1)c1ccc(-c2cccc(Cl)c2Cl)o1 35.5 µM [inhibitor, single point]
Cc1ccccc1NC(=S)N(C)C1(c2ccccc2Cl)CCCCC1=O (configuration not stated) 10 µM [inhibitor, partial curve, poor fit]
CCOC(=O)C(C)Sc1nc2c(c(-c3cccs3)c1C#N)CCC2 (configuration not stated) 35.5 µM [inhibitor, single point]
CC(=O)c1cc(Cc2csc(C(C)=O)c2)cs1 2.51 µM [activator, single point]
Cc1csc(Nc2ccccc2)n1 14.1 µM [inhibitor, single point]
C=CCn1c(COc2ccc(OC)cc2)nnc1SCn1nnc2ccccc2c1=O 3.16 µM [activator, single point]

Quoted at random: 3 records from the list
Potency, inconclusive:
Cc1ccc(C2=NN(CC(=O)NCc3ccco3)C(=O)CC2)cc1 31.6 µM [activator, single point]
COc1ccc2cc1Oc1ccc(cc1)C[C@H]1c3c(cc4c(c3Oc3cc5c(cc3OC)CCN(C)[C@@H]5C2)OCO4)CCN1C 11.2 µM [inhibitor, partial curve, poor fit]
CCCC[n+]1ccn(C2=C([O-])c3ccccc3C(=O)/C2=N\S(=O)(=O)c2ccccc2)c1 10 µM [inhibitor, partial curve]

Following part.

Activity change, negative = inhibition, inactive:
CC(=O)CCc1ccc(OCC(O)CNCCOc2ccc(C)cc2)cc1 (configuration not stated) -11.2%
COC(=O)c1cc2occc2n1Cc1c(F)cccc1Cl 9.21%
CCn1c(SCC(=O)Nc2nc(C)cs2)nnc1-c1ccncc1 -1.01%
Cn1c(=O)c2c(nc(SCCN3CCOCC3)n2Cc2ccc(F)cc2)n(C)c1=O 31.8%
CCn1ncc(-c2ccnc3cc(C(=O)O)nn23)c1C -24.2%
COc1ccc(Nc2nnc(SCC3CCCCO3)s2)cc1 (configuration not stated) 24.7%
Cc1cc(C(N)=O)c2ccccc2n1 -4.72%
Cn1c(-c2sccc2OCc2ccccc2)n[nH]c1=S 29.5%
CC(=O)c1ccc(NC(=O)c2ccn(C(=O)OCC(C)C)n2)cc1 -15.4%
COc1ccc(S(=O)(=O)N2CC(C(=O)O)Oc3ccccc32)cc1 (configuration not stated) 0.047%
CCCOc1ccc(C(=O)C(c2ccccc2)N2CCOCC2)cc1 (configuration not stated) 23.2%
Cc1ccccc1NC(=O)c1cc(S(=O)(=O)N2CCOCC2)cn1C 3.8%
COC(=O)c1cn(-c2ccccc2)nc1-c1cccnc1 -14.8%
CC(C)(CO)NCC#Cc1ccccc1 5.77%
CC(C)[C@H](NC(=O)C1CCN(S(=O)(=O)c2ccc(F)cc2)CC1)C(=O)NCc1ccco1 -0.613%
CCCCn1nc2cc(C(=O)NCc3ccccc3OC)ccc2c1OCC 22.2%
Cc1cccc(C)c1NC(=O)NNC(=O)c1cc(C(C)(C)C)nn1Cc1ccccc1 -29%
CCOC(=O)c1c(NC(=S)N2CCOCC2)sc2c1CCN(C(=O)OCC)C2 -23%
CCC(C)(C(=O)NC1CCCC1)N(C)C(=O)c1ccccn1 (configuration not stated) -8.61%
CCOC(=O)C1(CCc2ccccc2)CCN(C(=O)C2CCCO2)CC1 (configuration not stated) -0.301%
CCC1=NN=C(c2ccc(F)cc2)C(c2c[nH]c3ccccc23)N1O (configuration not stated) 38.3%
Cc1ccc2nc(N(CCCN(C)C)C(=O)c3cc4ccccc4oc3=O)sc2c1 -8.15%
O=C(CCSc1ccccc1)OCn1nnc2ccccc2c1=O 15%
COc1ccc(N2CCN(C(=O)C(=O)c3cn(CC(=O)N4CCCCCC4)c4ccccc34)CC2)cc1 35.7%
c1ccc2oc(-c3ccn[nH]3)cc2c1 -33.8%
